# Data published in PubChem BioAssay AID1487 (National Center for Advancing Translational Sciences (NCATS), 2009).
# Some of the results follow. These are further read-outs of the screen, such as a control signal, another cell line or another target. No call is given for them. Compounds called inactive in the main read-out are mostly missing here. Potencies come from curve fits of mixed quality, noted in brackets.
# Experiment: qHTS Assay for Modulators of Lamin A Splicing
# Details: HeLa LMNA splicing GFP/RFP minigene ratio, 48 h
# How it was run: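 Read-out is the ratio of GFP to DsRed2 object intensity, acquired by 488 nm laser-scanning cytometry on HeLa lamin A-EGFP minigene reporter cells. Compound incubation 48 hrs at 37 °C in Opti-MEM with 2% FBS; DMSO 0.5% final.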
# [1] = measured here: RFP viability control channel
# [2] = measured here: GFP splicing reporter channel
SMILES,AC50 [1],AC50 [2]
CCN1CCc2c(OCC(=O)N3N=C(c4cccs4)CC3c3ccc(F)cc3)cccc2C1=O (stereo unspecified),"2.82 µM [rising, partial curve, poor fit]",
COc1ccc(-c2cc(C3CCN(c4cc(Cl)nc(N)n4)CC3)[nH]n2)cc1,"11.2 µM [falling, partial curve]",
O=C(c1ccco1)c1coc2c1cc(O)c1ccccc12,,"8.91 µM [falling, partial curve, poor fit]"
CCOC(=O)c1c(C)[nH]c(C)c1S(=O)(=O)N1CCCC(C(=O)N2CCN(c3cccc(Cl)c3)CC2)C1 (stereo unspecified),"0.501 µM [falling, full curve]","0.562 µM [falling, full curve]"
COc1ccc(NC(=O)c2ccc(Cc3ccc(C)cc3)o2)cc1,"15.8 µM [rising, partial curve]",
O=C(NCc1ccccc1Cl)c1ccc2c(c1)NC(=O)C(CS(=O)(=O)Cc1ccc(Cl)cc1)N2 (stereo unspecified),"1.58 µM [falling, partial curve]",
Cc1cccc(C)c1NC(=O)CCCSc1nnc(-c2ccc(Cl)cc2)n1-c1ccccc1,"5.01 µM [rising, full curve, poor fit]",
O=c1cc(-c2ccccc2)nc(N2CCN(Cc3ccccc3)CC2)[nH]1,"22.4 µM [rising, single point]",
O=C(NNC(=S)Nc1cccc(Cl)c1)c1ccccc1OC(F)F,"12.6 µM [rising, partial curve]",
CCOC(=O)C1=C(SCC)c2cc3c(n2C1=O)CCCC3,"35.5 µM [rising, single point]",
CCCCN(C)C(=O)CSc1nc(NCc2ccc(OC)cc2)c2ccccc2n1,"35.5 µM [rising, single point]","35.5 µM [rising, single point]"
CCOC(=O)c1c(C)c(C(=O)Nc2ccc3c(c2)OCCO3)c(C)n1CC,"35.5 µM [rising, single point]",
Cc1nc(-c2ccccc2)nc(Cl)c1Cl,"0.0355 µM [falling, full curve]",
CCCCNC(=S)N/N=C/c1cc(C)ccc1C,"10 µM [falling, partial curve, poor fit]","15.8 µM [falling, partial curve, poor fit]"
CCN(CCO)CCCC(C)Nc1ccnc2cc(Cl)ccc12 (stereo unspecified),"35.5 µM [falling, single point]","35.5 µM [falling, single point]"
CCOC(=O)c1ccc(NC(=O)Cn2cccc2)cc1,,"2 µM [rising, single point]"
Cc1nonc1CN(C)C(=O)c1ccc(OC2CCN(Cc3ccccn3)CC2)cc1,"0.0501 µM [falling, single point]",
COc1cc(OC)cc(C(=O)Nc2nc3ccc(S(C)(=O)=O)cc3s2)c1,,"35.5 µM [falling, single point]"
Clc1ccccc1COc1ccccc1-c1nnco1,"15.8 µM [rising, single point]",

# Part of the list above, tab-delimited.
SMILES	AC50 [1]	AC50 [2]
CCN1CCc2c(OCC(=O)N3N=C(c4cccs4)CC3c3ccc(F)cc3)cccc2C1=O (stereo unspecified)	2.82 µM [rising, partial curve, poor fit]	
COc1ccc(-c2cc(C3CCN(c4cc(Cl)nc(N)n4)CC3)[nH]n2)cc1	11.2 µM [falling, partial curve]	
O=C(c1ccco1)c1coc2c1cc(O)c1ccccc12		8.91 µM [falling, partial curve, poor fit]
CCOC(=O)c1c(C)[nH]c(C)c1S(=O)(=O)N1CCCC(C(=O)N2CCN(c3cccc(Cl)c3)CC2)C1 (stereo unspecified)	0.501 µM [falling, full curve]	0.562 µM [falling, full curve]
COc1ccc(NC(=O)c2ccc(Cc3ccc(C)cc3)o2)cc1	15.8 µM [rising, partial curve]	
O=C(NCc1ccccc1Cl)c1ccc2c(c1)NC(=O)C(CS(=O)(=O)Cc1ccc(Cl)cc1)N2 (stereo unspecified)	1.58 µM [falling, partial curve]	
Cc1cccc(C)c1NC(=O)CCCSc1nnc(-c2ccc(Cl)cc2)n1-c1ccccc1	5.01 µM [rising, full curve, poor fit]	
O=c1cc(-c2ccccc2)nc(N2CCN(Cc3ccccc3)CC2)[nH]1	22.4 µM [rising, single point]	
O=C(NNC(=S)Nc1cccc(Cl)c1)c1ccccc1OC(F)F	12.6 µM [rising, partial curve]	
CCOC(=O)C1=C(SCC)c2cc3c(n2C1=O)CCCC3	35.5 µM [rising, single point]	
CCCCN(C)C(=O)CSc1nc(NCc2ccc(OC)cc2)c2ccccc2n1	35.5 µM [rising, single point]	35.5 µM [rising, single point]
CCOC(=O)c1c(C)c(C(=O)Nc2ccc3c(c2)OCCO3)c(C)n1CC	35.5 µM [rising, single point]	
Cc1nc(-c2ccccc2)nc(Cl)c1Cl	0.0355 µM [falling, full curve]	
CCCCNC(=S)N/N=C/c1cc(C)ccc1C	10 µM [falling, partial curve, poor fit]	15.8 µM [falling, partial curve, poor fit]
CCN(CCO)CCCC(C)Nc1ccnc2cc(Cl)ccc12 (stereo unspecified)	35.5 µM [falling, single point]	35.5 µM [falling, single point]
CCOC(=O)c1ccc(NC(=O)Cn2cccc2)cc1		2 µM [rising, single point]

# Later entries:

SMILES,AC50 [1],AC50 [2]
CC1CN(C(=O)N2CCC(C(=O)NCc3ccccc3F)CC2)c2cc(Cl)ccc2O1 (stereo unspecified),"1 µM [rising, full curve]","0.562 µM [rising, full curve]"
COc1ccc(/C=N/OCC(=O)N2CCCC2)c(OC)c1,,"0.0562 µM [falling, full curve, poor fit]"
CCCOc1ccc(C(=O)NNC(=S)NC(=O)c2cc(-c3ccccc3)nc3ccccc23)cc1,,"7.08 µM [rising, full curve, poor fit]"
CC(=O)Nc1ccc(/C(C)=N/Nc2nc(Nc3cccc4ccccc34)nc(N3CCOCC3)n2)cc1,"10 µM [rising, partial curve]",
CC(C)CCN1CCN(Cc2ccsc2)CC1CCO (stereo unspecified),"0.0355 µM [rising, full curve]","0.891 µM [rising, full curve]"
Oc1ccccc1-c1nc(NCC2CCCO2)c2ccccc2n1 (stereo unspecified),"17.8 µM [rising, single point]",
Cc1c(Cl)cccc1NC(=O)COC(=O)c1c2c(nc3ccccc13)CCN(Cc1ccccc1)C2,"10 µM [rising, partial curve]",
O=C(O)c1cccnc1Cl,"0.112 µM [falling, full curve, poor fit]",
Nc1nc(CSC(=S)N2CCN(c3ccccc3)CC2)nc(Nc2ccccc2)n1,"31.6 µM [rising, single point]","14.1 µM [rising, single point]"
CCOC(=O)C1=C(C)NC(C)=C(C(=O)OCC)C1C1=COCCO1,"0.282 µM [rising, full curve, poor fit]",
Cc1cc(S(=O)(=O)NC(C)C)ccc1OCC(=O)NCc1ccccc1,,"3.55 µM [falling, partial curve]"
Cc1cc2c(OCC(O)CN3CCCC3)cccc2[nH]1 (stereo unspecified),,"0.00316 µM [rising, full curve]"
CCc1ccccc1S(=O)(=O)Cc1ccc(C(=O)N2CCN(c3ccccc3OC)CC2)o1,"11.2 µM [rising, partial curve]",
CC(C)NC(=O)N(O)C1N(Cc2ccc3c(c2)OCO3)C(=S)SC1(C)C (stereo unspecified),"1.26 µM [falling, single point]","35.5 µM [rising, single point]"
Cc1onc(-c2c(F)cccc2Cl)c1C(=O)Nc1cccc2nsnc12,"8.91 µM [rising, partial curve]","2.51 µM [rising, full curve, poor fit]"
C=CCN(CC=C)S(=O)(=O)c1ccc(C(=O)Nc2nc3c(s2)CCc2ccccc2-3)cc1,"11.2 µM [rising, partial curve, poor fit]","12.6 µM [rising, partial curve, poor fit]"
O=C(c1ccc(COc2c(F)c(F)cc(F)c2F)o1)N1CCN(c2ccccc2)CC1,"11.2 µM [rising, partial curve, poor fit]",
Cn1nnnc1SCCCNCc1cc(Br)ccc1OCc1ccccc1F,,"8.91 µM [falling, partial curve, poor fit]"
CCOC(=O)c1cc(-c2ccccc2)n(CC(=O)Nc2ccccc2OCC)c1C,"0.158 µM [falling, full curve, poor fit]","0.158 µM [falling, full curve, poor fit]"

SMILES,AC50 [1],AC50 [2]
CCCCCCC(C)NC(=S)Nc1cc(S(=O)(=O)N(C)C)ccc1C (stereo unspecified),"20 µM [rising, single point]","12.6 µM [rising, partial curve]"
Cc1ccccc1-c1noc(-c2ccccc2C(=O)N2CCCC2)n1,"20 µM [rising, partial curve, poor fit]","0.00447 µM [rising, full curve, poor fit]"
CCCCNc1nc(N)nc(-c2cc(Cl)ccc2O)n1,"15.8 µM [falling, single point]","14.1 µM [falling, single point]"
Cc1cc(C)c(C(=O)Nc2ccc(Br)c(C(F)(F)F)c2)c(C)c1,"0.00708 µM [rising, full curve, poor fit]","17.8 µM [rising, partial curve]"
Cc1ccc(NC(=O)Cn2cc(S(=O)(=O)c3ccc(C)cc3)c(=O)c3cc(F)ccc32)cc1,"5.62 µM [rising, single point]","3.98 µM [rising, single point]"
COC(=O)c1nn(-c2ccc(C)cc2)c2nnc(Cc3ccccc3)c(=O)n12,"3.98 µM [falling, partial curve]","5.01 µM [falling, partial curve]"
COc1ccc(-n2c(CNC(=O)c3cccs3)n[nH]c2=S)cc1,,"2.51 µM [falling, full curve]"
CCOC(=O)c1ccccc1NC(=O)C=C(C)C,"0.00355 µM [rising, full curve, poor fit]",
COc1cccc(NC(=S)NNC(=O)CCn2cc([N+](=O)[O-])cn2)c1,"0.00316 µM [falling, full curve, poor fit]",
Cc1cccc(/C=N\NC(=O)c2ccc(Cl)cc2)c1O,"2.24 µM [falling, partial curve, poor fit]",
Fc1cccc(NC(=S)NCCc2ccccc2)c1,"35.5 µM [rising, single point]",
Cc1cccc(C)c1NC(=O)CCCn1c(=O)c2cccn2c2ccccc21,,"12.6 µM [falling, partial curve, poor fit]"
O=Cc1sc(Nc2ccccc2)nc1Cl,,"1.78 µM [falling, full curve]"
NC(=O)C1CCN(c2ncnc3c(-c4ccccc4)nsc23)CC1,"22.4 µM [falling, single point]","15.8 µM [falling, single point]"
O=C(COc1ccc(Br)cc1)N1CCN(S(=O)(=O)/C=C/c2ccccc2)CC1,"35.5 µM [rising, single point]","31.6 µM [rising, single point]"
Cc1ccc(Cl)cc1-n1ncc2c(Nc3ccc4c(c3)OCCO4)ncnc21,"3.98 µM [falling, single point]",
Cc1ccnc(Nc2nc3ccccc3o2)n1,"31.6 µM [rising, partial curve]",
COc1cccc(CN2CCN(Cc3ccc(C#CC(C)(C)O)s3)CC2CCO)c1 (stereo unspecified),"12.6 µM [falling, partial curve]","25.1 µM [falling, single point]"
